Reference: PubChem BioAssay AID445 (National Center for Advancing Translational Sciences (NCATS), 2006)
The other results are listed elsewhere or left out. Shown are side measurements of this screen, not its main read-out; they come without a call. Compounds called inactive in the main read-out are mostly missing here. Potencies come from curve fits of mixed quality, noted in brackets.

Assay: IkB Signaling
Conditions: ABC-DLBCL IkBa-CBG/CBR dual luciferase ratio (green luciferase fused to IkBa over red control in OCI-Ly3 lymphoma cells), 4 h; measured here: control luc red channel unless noted
In short: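 In this assay, an IκBα–CBG68 fusion accumulates when IKK-driven degradation is blocked; native CBR normalizes for cell number. OCI-Ly3 cells were treated 4 h with compound and doxycycline, then green and red light read after Chroma-Glo addition.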

SMILES | AC50
CCCn1cnc2cc(NCc3ccccn3)ccc21 | 1.26 µM [falling, partial curve]
Cc1ccccc1-c1nnc(CN2CCN(c3cccc(C)c3C)CC2)o1 | 31.6 µM [falling, partial curve]
COc1cccc(NC(=O)CSc2nc3c([nH]c4ccccc43)c(=O)n2-c2ccccc2)c1 | 39.8 µM [falling, single point]
CCCN1C(=O)c2[nH]nc(-c3ccccc3O)c2C1c1cccc(OCc2ccccc2)c1 (centres undefined) | 15.8 µM [falling, partial curve]
COCCNC(=O)C(=O)NCC(c1cccnc1)N1CCN(c2ccccc2OC)CC1 (centres undefined) | 15.8 µM [falling, partial curve]
CC(C)(C)NC(=O)c1cnn(-c2ccccc2)c1C1CCN(C(=O)OC(C)(C)C)CC1 | 15.8 µM [falling, single point]
O=C(CCCc1nc2ccccc2s1)Nc1nccs1 | 25.1 µM [falling, single point]
O=C(NCc1ccccc1Cl)c1cc2c(s1)-c1ccccc1SC2 | 5.01 µM [falling, partial curve]
Cc1ccc(CSc2ccc(-c3cccs3)nn2)cc1 | 5.01 µM [rising, partial curve]
COc1ccc(S(=O)(=O)n2cnc3cc(C)c(C)cc32)cc1C | 12.6 µM [falling, partial curve]
Cc1cc(OCC(=O)Nc2cc(-c3nc4ccccc4[nH]3)ccc2C)ccc1Cl | 10 µM [falling, partial curve]
COc1cccc(NC(=O)CSc2nnc(-c3cc(C)n(-c4ccccc4)c3C)o2)c1 | 7.94 µM [falling, partial curve]
Cc1ccccc1C(=O)Nc1nnc(SCc2cc(=O)n3ccccc3n2)s1 | 6.31 µM [falling, partial curve]
CCCCC(c1nnnn1Cc1ccco1)N1CCN(c2nc3ccccc3s2)CC1 (centres undefined) | 12.6 µM [falling, partial curve]
CCCCC(CC)CNC(=O)c1ccc2c(=O)n(CCOC)c(=O)[nH]c2c1 (centres undefined) | 2 µM [falling, full curve]
COc1ccc(NC(=O)C2CCN(c3cc(C)nc(-c4ccccc4)n3)CC2)cc1 | 12.6 µM [falling, partial curve]
CC(=O)c1cccc(S(=O)(=O)N2CCN(c3ccccc3F)CC2)c1 | 15.8 µM [falling, single point]
O=C(COc1cccc2cccnc12)Nc1nccs1 | 3.16 µM [falling, full curve]
Cc1ccc(CN2CCC(CNC(=O)c3cc4ccc5cccnc5c4[nH]3)CC2)cc1 | 20 µM [falling, single point]

Nothing new here: an excerpt of the list.
SMILES | AC50
COc1cccc(NC(=O)CSc2nc3c([nH]c4ccccc43)c(=O)n2-c2ccccc2)c1 | 39.8 µM [falling, single point]
CCCN1C(=O)c2[nH]nc(-c3ccccc3O)c2C1c1cccc(OCc2ccccc2)c1 (centres undefined) | 15.8 µM [falling, partial curve]
